PubChem BioAssay AID504764 – Drosophila RNAi Screening Center – 2011

Assay: 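Knock-downs that raise or lower a Notch target reporter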 (primary screen)
Cell system: Drosophila Kc167 cells
Reagent: long dsRNA against Drosophila genes
Timing: about 5 days (4 days dsRNA, then 24 h after transfection)
Challenge: transfection of constitutively active membrane-tethered Notch lacking the extracellular domain, read 24 h later
Measured: 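Firefly luciferase from an E(spl)m3 reporter with active Notch, plus control-promoter and uninduced reporter wells for normalisation; unnormalised counts, duplicate wells a and b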
Reading the numbers: induced reporter light, run 1, well a and induced reporter light, run 1, well b: higher = more light from the Notch target reporter with active Notch; control promoter light, run 1, well a and control promoter light, run 1, well b: higher = more light from the viral control promoter (cell number, transfection, viability); uninduced reporter light, run 1, well a: higher = more light from the Notch target reporter without active Notch
Hit rule: 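Hit if the duplicate-averaged log2 ratio of induced to control-promoter light gives a plate-wise z beyond ±2, or induced to uninduced beyond ±1.8; weak-control or discordant-duplicate wells dropped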
Calls: active = modifier hit (raised or lowered Notch signal); inactive = not a hit
The screen tested about 22,000 reagents; this is an unselected part of those that have a named target and a result. Over the whole deposit, 403 (1.9%) are marked active. 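Unnormalised raw counts per well; ratio z-scores behind the hit calls and whether each hit raises or lowers signal are not deposited.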 Unmarked entries are inactive. Reagents against one gene are numbered here. Reagent sequences are not shown. Not given: the amount of reagent.

CG42382 (GeneID 35938) scored induced reporter light, run 1, well a = 2.10e5; induced reporter light, run 1, well b = 1.92e5; control promoter light, run 1, well a = 2.51e5; control promoter light, run 1, well b = 1.91e5; uninduced reporter light, run 1, well a = 16395.
After knock-down of Dlic (GeneID 32057), the screen gave induced reporter light, run 1, well a = 1.49e5; induced reporter light, run 1, well b = 1.34e5; control promoter light, run 1, well a = 1.68e5; control promoter light, run 1, well b = 1.66e5; uninduced reporter light, run 1, well a = 11870.
For Syx6 (GeneID 40373), the entry reads induced reporter light, run 1, well a = 1.54e5; induced reporter light, run 1, well b = 1.66e5; control promoter light, run 1, well a = 1.54e5; control promoter light, run 1, well b = 1.39e5; uninduced reporter light, run 1, well a = 17810.
Against Sclp (GeneID 32156) the deposit lists induced reporter light, run 1, well a = 2.46e5; induced reporter light, run 1, well b = 2.13e5; control promoter light, run 1, well a = 2.94e5; control promoter light, run 1, well b = 3.30e5; uninduced reporter light, run 1, well a = 16205.
Against Pten (GeneID 43991), the entry reads induced reporter light, run 1, well a = 1.58e5; induced reporter light, run 1, well b = 1.82e5; control promoter light, run 1, well a = 1.02e5; control promoter light, run 1, well b = 1.36e5; uninduced reporter light, run 1, well a = 24395.
CG4681 (GeneID 37928) scored induced reporter light, run 1, well a = 1.46e5; induced reporter light, run 1, well b = 1.32e5; control promoter light, run 1, well a = 1.41e5; control promoter light, run 1, well b = 1.57e5; uninduced reporter light, run 1, well a = 8450.
CG5506 (GeneID 39992) scored induced reporter light, run 1, well a = 2.17e5; induced reporter light, run 1, well b = 1.68e5; control promoter light, run 1, well a = 2.85e5; control promoter light, run 1, well b = 2.40e5; uninduced reporter light, run 1, well a = 12065.
After knock-down of SIDL (GeneID 41833), the screen gave induced reporter light, run 1, well a = 1.18e5; induced reporter light, run 1, well b = 1.25e5; control promoter light, run 1, well a = 83500; control promoter light, run 1, well b = 77850; uninduced reporter light, run 1, well a = 10540.
With knock-down of CG15155 (GeneID 35087), the screen gave induced reporter light, run 1, well a = 1.34e5; induced reporter light, run 1, well b = 1.30e5; control promoter light, run 1, well a = 1.39e5; control promoter light, run 1, well b = 1.46e5; uninduced reporter light, run 1, well a = 10060.
Against Acp53C14b (GeneID 36873), the values are induced reporter light, run 1, well a = 1.10e5; induced reporter light, run 1, well b = 93355; control promoter light, run 1, well a = 1.04e5; control promoter light, run 1, well b = 1.61e5; uninduced reporter light, run 1, well a = 11320.
After knock-down of CG17666 (GeneID 39452), the screen gave induced reporter light, run 1, well a = 1.96e5; induced reporter light, run 1, well b = 1.56e5; control promoter light, run 1, well a = 2.54e5; control promoter light, run 1, well b = 2.11e5; uninduced reporter light, run 1, well a = 8255.

A stretch from the list above, for reference:
Syx6 (GeneID 40373): induced reporter light, run 1, well a = 1.54e5; induced reporter light, run 1, well b = 1.66e5; control promoter light, run 1, well a = 1.54e5; control promoter light, run 1, well b = 1.39e5; uninduced reporter light, run 1, well a = 17810
Sclp (GeneID 32156): induced reporter light, run 1, well a = 2.46e5; induced reporter light, run 1, well b = 2.13e5; control promoter light, run 1, well a = 2.94e5; control promoter light, run 1, well b = 3.30e5; uninduced reporter light, run 1, well a = 16205

Further records follow:
Knock-down of Osi19 (GeneID 40776) resulted in: induced reporter light, run 1, well a = 75890; induced reporter light, run 1, well b = 90330; control promoter light, run 1, well a = 85530; control promoter light, run 1, well b = 56995; uninduced reporter light, run 1, well a = 5782.
For CG11672 (GeneID 40977), the entry reads induced reporter light, run 1, well a = 1.04e5; induced reporter light, run 1, well b = 1.01e5; control promoter light, run 1, well a = 96365; control promoter light, run 1, well b = 67650; uninduced reporter light, run 1, well a = 7820.
CG4743 (GeneID 43101) scored induced reporter light, run 1, well a = 1.49e5; induced reporter light, run 1, well b = 1.47e5; control promoter light, run 1, well a = 2.06e5; control promoter light, run 1, well b = 1.76e5; uninduced reporter light, run 1, well a = 11800.
CG10055 (GeneID 40862) gave induced reporter light, run 1, well a = 1.32e5; induced reporter light, run 1, well b = 1.14e5; control promoter light, run 1, well a = 1.03e5; control promoter light, run 1, well b = 85340; uninduced reporter light, run 1, well a = 9962.
Against scw (GeneID 46000) #1 the deposit lists induced reporter light, run 1, well a = 69710; induced reporter light, run 1, well b = 58605; control promoter light, run 1, well a = 77685; control promoter light, run 1, well b = 80610; uninduced reporter light, run 1, well a = 5010.
For scw (GeneID 46000) #2 the deposit lists induced reporter light, run 1, well a = 1.45e5; induced reporter light, run 1, well b = 1.06e5; control promoter light, run 1, well a = 1.70e5; control promoter light, run 1, well b = 1.36e5; uninduced reporter light, run 1, well a = 11670.
Sema2b (GeneID 246538) #1 showed induced reporter light, run 1, well a = 1.22e5; induced reporter light, run 1, well b = 1.23e5; control promoter light, run 1, well a = 1.71e5; control promoter light, run 1, well b = 1.45e5; uninduced reporter light, run 1, well a = 8835.
Silencing of Sema2b (GeneID 246538) #2 came out at: induced reporter light, run 1, well a = 1.07e5; induced reporter light, run 1, well b = 1.18e5; control promoter light, run 1, well a = 1.44e5; control promoter light, run 1, well b = 1.12e5; uninduced reporter light, run 1, well a = 8338.
For Sema2b (GeneID 246538) #3, the entry reads induced reporter light, run 1, well a = 44610; induced reporter light, run 1, well b = 49230; control promoter light, run 1, well a = 89700; control promoter light, run 1, well b = 75430; uninduced reporter light, run 1, well a = 4485.
Knock-down of Dad1 (GeneID 34159) came out at: induced reporter light, run 1, well a = 2.12e5; induced reporter light, run 1, well b = 2.42e5; control promoter light, run 1, well a = 1.49e5; control promoter light, run 1, well b = 1.83e5; uninduced reporter light, run 1, well a = 28465.
After knock-down of prel (GeneID 35969) the results were induced reporter light, run 1, well a = 1.64e5; induced reporter light, run 1, well b = 1.98e5; control promoter light, run 1, well a = 1.51e5; control promoter light, run 1, well b = 1.85e5; uninduced reporter light, run 1, well a = 14520.
plh (GeneID 40615) showed induced reporter light, run 1, well a = 1.65e5; induced reporter light, run 1, well b = 1.24e5; control promoter light, run 1, well a = 1.14e5; control promoter light, run 1, well b = 1.18e5; uninduced reporter light, run 1, well a = 13910.
Silencing of Cdlc2 (GeneID 33319) resulted in: induced reporter light, run 1, well a = 1.08e5; induced reporter light, run 1, well b = 88320; control promoter light, run 1, well a = 86320; control promoter light, run 1, well b = 83275; uninduced reporter light, run 1, well a = 6450.
